Measured data: PubChem BioAssay AID1259405 (NCATS, 2018)
In all, the deposit lists about 50,000 reagents; this is an unselected part. About 4,000 of them (8%) were called active. 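Mouse siRNA library applied to hamster cells; one well for each siRNA.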 Reagents against one gene are numbered here.

- Assay: 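Mouse-designed siRNAs used to find CHO productivity engineering targets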 (primary screen)
- System: Chinese hamster CHO-K1 ovary cells with stable secreted eGFP expression
- Knock-down reagent: single siRNA against mouse genes, 0.8 pmol siRNA per well (2 µl of 400 nM stock)
- Duration: 3 days
- Detection: 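Per-well intracellular GFP measured by laser scanning cytometry, plus viability from ATP luminescence, each relative to plate median of non-targeting control wells, in %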
- Scale: GFP, % of control: higher = more GFP per well, higher productivity; viability (ATP), % of control: higher = more viable cells (more ATP)
- Hit rule: 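a knock-down is called active if GFP reaches 120% or more of non-targeting control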

The first 2 entries as a preview:
Crppa (CDP-L-ribitol pyrophosphorylase A) #1: GFP, % of control = 69.8; viability (ATP), % of control = 84.6; outcome = inactive
Crppa (CDP-L-ribitol pyrophosphorylase A) #2: GFP, % of control = 79.2; viability (ATP), % of control = 43.7; outcome = inactive

Main list, from the start:
Crppa (CDP-L-ribitol pyrophosphorylase A) #1: GFP, % of control = 69.8; viability (ATP), % of control = 84.6; outcome = inactive
Crppa (CDP-L-ribitol pyrophosphorylase A) #2: GFP, % of control = 79.2; viability (ATP), % of control = 43.7; outcome = inactive
Crppa (CDP-L-ribitol pyrophosphorylase A) #3: GFP, % of control = 75.1; viability (ATP), % of control = 89.5; outcome = inactive
Frmpd3 (FERM and PDZ domain containing 3) #1: GFP, % of control = 75.6; viability (ATP), % of control = 46.4; outcome = inactive
Frmpd3 (FERM and PDZ domain containing 3) #2: GFP, % of control = 69.1; viability (ATP), % of control = 75.2; outcome = inactive
Frmpd3 (FERM and PDZ domain containing 3) #3: GFP, % of control = 79.6; viability (ATP), % of control = 109; outcome = inactive
Cyp2d26 (cytochrome P450, family 2, subfamily d, polypeptide 26) #1: GFP, % of control = 50.3; viability (ATP), % of control = 66.5; outcome = inactive
Cyp2d26 (cytochrome P450, family 2, subfamily d, polypeptide 26) #2: GFP, % of control = 59.1; viability (ATP), % of control = 72.5; outcome = inactive
Cyp2d26 (cytochrome P450, family 2, subfamily d, polypeptide 26) #3: GFP, % of control = 81.8; viability (ATP), % of control = 81.1; outcome = inactive
Minar2 (membrane integral NOTCH2 associated receptor 2) #1: GFP, % of control = 85.5; viability (ATP), % of control = 78.2; outcome = inactive
Minar2 (membrane integral NOTCH2 associated receptor 2) #2: GFP, % of control = 43.8; viability (ATP), % of control = 68.6; outcome = inactive
Minar2 (membrane integral NOTCH2 associated receptor 2) #3: GFP, % of control = 57.5; viability (ATP), % of control = 74; outcome = inactive
Wdpcp (WD repeat containing planar cell polarity effector) #1: GFP, % of control = 45.6; viability (ATP), % of control = 105; outcome = inactive
Wdpcp (WD repeat containing planar cell polarity effector) #2: GFP, % of control = 64.5; viability (ATP), % of control = 102; outcome = inactive
Wdpcp (WD repeat containing planar cell polarity effector) #3: GFP, % of control = 74.2; viability (ATP), % of control = 74.2; outcome = inactive
Txn2 (thioredoxin 2) #1: GFP, % of control = 33.6; viability (ATP), % of control = 42.7; outcome = inactive
Txn2 (thioredoxin 2) #2: GFP, % of control = 45.9; viability (ATP), % of control = 64.6; outcome = inactive
Txn2 (thioredoxin 2) #3: GFP, % of control = 87.8; viability (ATP), % of control = 69.6; outcome = inactive
